Assay results as given in patent US20180222952A1.
No constants are given. Whether binding was seen depends on the method and setting. For some of these results: In cells and extracts the contact can be indirect. Some entries that bind do so weakly or less than the wild type. For some of these results: Sequences can lack the tags named with a protein.

By UniProt entry, the sequences of proteins in these tests, tags left out. Where a name states a change or a piece, a line headed by the entry shows the natural chain unless it says otherwise. Chains listed by the source or under a name are the forms on record and can include a tag or linker. Residues count along the entry.
UniProt P0DMV8: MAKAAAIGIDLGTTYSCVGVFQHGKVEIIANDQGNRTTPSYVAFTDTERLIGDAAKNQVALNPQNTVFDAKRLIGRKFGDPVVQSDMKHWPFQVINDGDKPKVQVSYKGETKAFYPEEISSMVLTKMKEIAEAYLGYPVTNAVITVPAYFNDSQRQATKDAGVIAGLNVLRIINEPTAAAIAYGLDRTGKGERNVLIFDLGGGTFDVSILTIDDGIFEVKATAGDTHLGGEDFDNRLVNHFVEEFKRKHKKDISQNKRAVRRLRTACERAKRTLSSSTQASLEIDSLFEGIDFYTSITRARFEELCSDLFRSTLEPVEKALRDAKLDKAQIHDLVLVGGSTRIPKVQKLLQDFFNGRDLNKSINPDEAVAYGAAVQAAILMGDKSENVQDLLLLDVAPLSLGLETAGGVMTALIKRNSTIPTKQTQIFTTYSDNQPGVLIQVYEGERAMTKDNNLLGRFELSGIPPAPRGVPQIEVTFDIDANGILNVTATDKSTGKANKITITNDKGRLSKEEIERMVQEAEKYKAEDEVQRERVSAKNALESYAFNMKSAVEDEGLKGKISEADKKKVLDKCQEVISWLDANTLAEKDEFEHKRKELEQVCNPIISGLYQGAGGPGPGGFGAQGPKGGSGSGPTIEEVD
HSP70 co-purified with His-tagged PGRN from HEK293EBAN cells: residues 2-641 of P0DMV8
UniProt P17987: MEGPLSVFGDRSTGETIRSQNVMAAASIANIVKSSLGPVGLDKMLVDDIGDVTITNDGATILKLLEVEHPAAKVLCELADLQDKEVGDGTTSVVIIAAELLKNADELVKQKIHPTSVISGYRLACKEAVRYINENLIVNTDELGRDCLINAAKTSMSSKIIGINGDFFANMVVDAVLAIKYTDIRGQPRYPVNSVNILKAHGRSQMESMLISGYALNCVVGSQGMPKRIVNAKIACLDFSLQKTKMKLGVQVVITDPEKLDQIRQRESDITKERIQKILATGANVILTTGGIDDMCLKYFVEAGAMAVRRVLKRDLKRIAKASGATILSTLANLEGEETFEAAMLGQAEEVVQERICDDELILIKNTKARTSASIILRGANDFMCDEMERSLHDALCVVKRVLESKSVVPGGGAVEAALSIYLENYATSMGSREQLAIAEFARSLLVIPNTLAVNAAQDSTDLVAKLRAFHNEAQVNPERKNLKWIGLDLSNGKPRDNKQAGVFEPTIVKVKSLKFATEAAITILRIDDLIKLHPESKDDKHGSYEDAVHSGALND
UniProt P02769, residues 25-607: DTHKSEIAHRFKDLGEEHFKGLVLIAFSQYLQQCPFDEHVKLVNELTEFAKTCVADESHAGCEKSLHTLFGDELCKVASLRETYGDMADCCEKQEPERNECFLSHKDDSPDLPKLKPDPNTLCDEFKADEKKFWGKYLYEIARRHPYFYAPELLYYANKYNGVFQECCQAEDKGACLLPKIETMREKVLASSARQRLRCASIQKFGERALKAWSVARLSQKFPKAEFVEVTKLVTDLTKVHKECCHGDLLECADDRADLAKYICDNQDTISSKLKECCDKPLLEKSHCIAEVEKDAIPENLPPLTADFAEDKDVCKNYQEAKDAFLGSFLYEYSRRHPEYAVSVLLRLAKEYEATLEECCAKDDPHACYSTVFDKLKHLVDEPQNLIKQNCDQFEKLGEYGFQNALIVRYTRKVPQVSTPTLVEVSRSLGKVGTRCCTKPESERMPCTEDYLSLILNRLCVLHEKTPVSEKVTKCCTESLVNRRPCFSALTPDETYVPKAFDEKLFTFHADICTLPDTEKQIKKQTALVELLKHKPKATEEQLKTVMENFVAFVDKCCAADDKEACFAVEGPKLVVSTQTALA
UniProt P28799: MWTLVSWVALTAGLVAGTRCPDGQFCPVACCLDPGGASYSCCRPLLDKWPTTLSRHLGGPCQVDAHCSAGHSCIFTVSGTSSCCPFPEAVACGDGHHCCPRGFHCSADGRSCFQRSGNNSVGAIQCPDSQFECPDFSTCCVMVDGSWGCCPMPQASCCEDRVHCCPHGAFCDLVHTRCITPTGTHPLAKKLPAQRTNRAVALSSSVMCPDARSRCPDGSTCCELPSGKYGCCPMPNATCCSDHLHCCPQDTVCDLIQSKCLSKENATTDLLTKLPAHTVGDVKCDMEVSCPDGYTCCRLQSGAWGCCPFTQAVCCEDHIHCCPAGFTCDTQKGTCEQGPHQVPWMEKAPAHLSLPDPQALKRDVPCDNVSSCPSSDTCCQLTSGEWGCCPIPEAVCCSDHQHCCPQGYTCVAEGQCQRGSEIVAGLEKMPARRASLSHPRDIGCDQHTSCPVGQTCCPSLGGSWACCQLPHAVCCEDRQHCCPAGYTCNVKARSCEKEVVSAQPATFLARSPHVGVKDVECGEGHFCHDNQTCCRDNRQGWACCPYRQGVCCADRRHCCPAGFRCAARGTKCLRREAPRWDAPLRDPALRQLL

Key:
[1] = molecular target: HSP70 expressed from a plasmid in transfected 293T cells (UniProt P0DMV8); experiment: co-IP from co-transfected 293T cells: IP anti-GFP, IB anti-HSP70
[2] = molecular target: T1, RFP-fused GBA (encoded by pDsRed-GBA) (UniProt P04062); experiment: co-IP from co-transfected 293T cells: IP anti-GFP, IB anti-RFP
T1 sequence (looked up): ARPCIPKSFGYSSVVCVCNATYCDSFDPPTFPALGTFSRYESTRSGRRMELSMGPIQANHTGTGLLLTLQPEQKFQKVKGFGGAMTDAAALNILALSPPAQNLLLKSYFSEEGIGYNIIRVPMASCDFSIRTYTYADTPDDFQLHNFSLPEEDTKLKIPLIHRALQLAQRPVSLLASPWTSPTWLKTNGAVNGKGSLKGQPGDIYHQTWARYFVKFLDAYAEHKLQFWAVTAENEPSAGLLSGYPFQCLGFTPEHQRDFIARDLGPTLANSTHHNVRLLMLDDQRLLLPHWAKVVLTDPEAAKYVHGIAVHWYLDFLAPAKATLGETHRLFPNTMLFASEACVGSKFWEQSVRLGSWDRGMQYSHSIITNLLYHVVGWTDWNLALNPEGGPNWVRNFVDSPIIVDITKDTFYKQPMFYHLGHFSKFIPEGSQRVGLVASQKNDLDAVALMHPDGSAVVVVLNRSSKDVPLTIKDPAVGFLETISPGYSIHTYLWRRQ

[3] = molecular target: T1, RFP-fused GBA (encoded by pDsRed-GBA); experiment: co-IP with GFP antibody, probed with RFP antibody, 293T cells
[4] = molecular target: HSP70 expressed from a plasmid in transfected 293T cells (UniProt P0DMV8); experiment: co-IP with GFP antibody, probed with HSP70 antibody, 293T cells
[5] = molecular target: T1, RFP-fused GBA (encoded by pDsRed-GBA); experiment: FRET in co-transfected 293 EBNA cells, excitation 488 nm, emission 588 nm
[6] = molecular target: T1, RFP-fused GBA (encoded by pDsRed-GBA); experiment: FRET in co-transfected 293 EBNA cells
[7] = molecular target: T1, RFP-fused GBA (encoded by pDsRed-GBA); experiment: co-IP with GFP antibody, probed with anti-RFP, 293 EBNA cells
[8] = molecular target: T1, RFP-fused GBA (encoded by pDsRed-GBA); experiment: co-IP from co-transfected 293 EBNA cells: IP anti-GFP, IB anti-RFP
[9] = molecular target: T1, RFP-fused GBA (encoded by pDsRed-GBA); experiment: co-IP and FRET with deletion mutants (summary of Example 2)
[10] = molecular target: HSP70 co-purified with His-tagged PGRN from HEK293EBAN cells (UniProt P0DMV8); experiment: co-purification from stably transfected HEK293EBAN cells, MS
[11] = molecular target: TCP1 co-purified with His-tagged PGRN from HEK293EBAN cells (UniProt P17987); experiment: as above
BSA (bovine) = BSA (bovine) (UniProt P02769); experiment: solid phase (ELISA-based) binding: Pcgin coated on the plate, BSA as negative control
[12] = molecular target: Biotin-labeled HSP70 (solid phase binding assay) (UniProt P0DMV8); experiment: solid phase binding, Pcgin coated, biotin-labeled HSP70, ELISA-based detection

Substance	binding [1]	binding [2]	binding [5]	binding [6]	binding [7]	binding [8]	other results
GFP fused Pcgin/ND7 deletion mutant lacking aa523-534 (from UniProt P28799 496-593)	binds	–	–	–	–	–	–
GFP fused Pcgin/ND7 deletion mutant lacking aa535-539 (RDNRQ) (from UniProt P28799 496-593)	–	binds	–	–	–	–	–
GFP fused Pcgin/ND7 deletion mutant Δ496-522 (from UniProt P28799 523-593)	binds	binds	–	–	–	–	binding [3]: binds; binding [4]: binds
GFP fused Pcgin/ND7 deletion mutant Δ574-593 (from UniProt P28799 496-573)	binds	binds	–	–	–	–	binding [3]: binds; binding [4]: binds
GFP-tagged PGRN N-terminal deletion mutant ND1 (aa 45-593) (from UniProt P28799 45-593)	–	–	binds	binds	binds	binds	–
GFP-tagged PGRN N-terminal deletion mutant ND2 (aa 113-593) (from UniProt P28799 113-593)	–	–	binds	binds	binds	binds	–
GFP-tagged PGRN N-terminal deletion mutant ND4 (aa 261-593) (from UniProt P28799 261-593)	–	–	binds	binds	binds	binds	–
GFP-tagged PGRN N-terminal deletion mutant ND5 (aa 336-593) (from UniProt P28799 336-593)	–	–	binds	binds	binds	binds	–
GFP-tagged PGRN N-terminal deletion mutant ND6 (aa 416-593) (from UniProt P28799 416-593)	–	–	binds	binds	binds	binds	–
GFP-tagged PGRN N-terminal deletion mutant ND7 (aa 496-593); GFP fused Pcgin (from UniProt P28799 496-593)	binds	binds	binds	binds	binds	binds	binding [3]: binds; binding [4]: binds; binding [9]: binds
Recombinant His-tag PGRN protein (full length progranulin) (from UniProt P28799 18-593) (ligand)	–	–	–	–	–	–	binding [10]: binds; binding [11]: binds
Recombinant Pcgin, His-tagged, expressed in bacteria (from UniProt P28799 496-593)	–	–	–	–	–	–	binding (BSA (bovine)): no binding (tested: 5 µg/ml); binding [12]: binds
